Results are given in words; binding and its absence hold for the method and conditions named. Some results given as binding are weak or reduced against the parent protein; the word gives no strength.

Amino acid sequences for entries named in this document (tags omitted). A change or cut given only in a name is not applied to a line headed by its entry.
UniProt Q9UBK9: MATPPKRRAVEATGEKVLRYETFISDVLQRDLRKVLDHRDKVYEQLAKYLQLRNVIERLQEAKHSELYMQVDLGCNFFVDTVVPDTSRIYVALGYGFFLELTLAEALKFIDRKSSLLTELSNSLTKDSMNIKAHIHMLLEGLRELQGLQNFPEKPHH
UniProt P04386: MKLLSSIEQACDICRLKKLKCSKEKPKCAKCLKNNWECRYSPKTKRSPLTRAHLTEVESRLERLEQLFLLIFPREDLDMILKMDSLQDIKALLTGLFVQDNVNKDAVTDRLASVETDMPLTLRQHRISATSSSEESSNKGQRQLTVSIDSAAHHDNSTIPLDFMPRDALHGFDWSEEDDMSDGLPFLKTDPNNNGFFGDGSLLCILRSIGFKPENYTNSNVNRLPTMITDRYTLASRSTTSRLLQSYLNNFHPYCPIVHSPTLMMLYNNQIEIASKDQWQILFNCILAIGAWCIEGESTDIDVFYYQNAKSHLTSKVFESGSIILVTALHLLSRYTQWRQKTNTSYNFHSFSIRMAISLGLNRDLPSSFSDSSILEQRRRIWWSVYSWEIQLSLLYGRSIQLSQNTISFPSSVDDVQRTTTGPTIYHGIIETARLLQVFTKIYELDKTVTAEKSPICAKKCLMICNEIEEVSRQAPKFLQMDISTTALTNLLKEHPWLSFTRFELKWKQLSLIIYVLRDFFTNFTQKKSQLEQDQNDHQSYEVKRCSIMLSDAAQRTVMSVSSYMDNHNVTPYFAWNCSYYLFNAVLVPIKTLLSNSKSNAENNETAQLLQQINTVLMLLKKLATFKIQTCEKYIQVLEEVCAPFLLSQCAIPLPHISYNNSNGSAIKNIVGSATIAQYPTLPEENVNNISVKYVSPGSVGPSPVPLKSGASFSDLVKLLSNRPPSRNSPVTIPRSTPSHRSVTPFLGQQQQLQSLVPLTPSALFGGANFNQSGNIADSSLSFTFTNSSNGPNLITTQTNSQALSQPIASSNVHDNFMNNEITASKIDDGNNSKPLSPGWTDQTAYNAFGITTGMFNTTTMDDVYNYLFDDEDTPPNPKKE

In the assay the target is STAP1 (Skp 2-associated protein one), cDNA clones from a HeLa cell library in pGAD-GH (human (HeLa cell library)) (UniProt Q9UBK9). The assay is described as follows: yeast two-hybrid screen of a HeLa cDNA library (selection on minus Leu/Trp/His with 3-amino-triazole, galactosidase activity).

“residues 101-423 of human Skp 2 cloned in the GAL4 DNA-binding domain vector pAS2-1 (from UniProt P04386 1-147; Q13309 101-423)”: the binding result is given as “binds”.

(Values after US20040028684A1, “Cancer diagnosis and assays for screening anti-cancer agents” (priority 2000, published 2004).)
